Experiment [1] has as its system TNFα-induced NFκB reporter activity in WT 293 cells (CDK8/19 inhibition). Put plainly: NFκB-dependent luciferase reporter cell-based assay in WT 293 cells. The note with it: Homo sapiens, HEK293, 3 h, 293-WT-NFKB-LUC#8; 10 ng/mL TNFα 3 h. As to the method:
(§1) The lentiviral construct pHAGE-NFkB-TA-LUC-UBC-dTomato was generated by Darrell Kotton […] Parental WT 293 cells or CDK8/19 dKO 293 cells were transduced with the lentivirus and dTomato-positive cells were sorted out using FACS Aria III. Single-cell clones were expanded and tested for luciferase reporter activities under TNFα- and/or senexin B-treated and untreated conditions with Bright-Glo Luciferase Assay System (Promega, Madison, WI, USA).
(§2) On day 1, cells were seeded in polyethyleneimine-coated 96-well plates at the density of 5 × 10^4 cells per well. […] Chemiluminescence intensity of each well was measured with ChemiDoc Touch™ (Bio-Rad) and quantified using ImageLab software (Bio-Rad). The raw data were then further processed with GraphPad Prism 7.0 (GraphPad Software, San Diego, CA, USA) for curve-fitting and IC50 calculation.
A general note: A reporter such as luciferase makes a cellular process visible.

Experiment [2] deals with TNFα-induced NFκB reporter activity in CDK8/19 dKO 293 cells. Put plainly: NFκB-dependent luciferase reporter cell-based assay in CDK8/19 dKO 293 cells. Particulars: Homo sapiens, HEK293; 293-dKO-NFKB-LUC#2; 10 ng/mL TNFα 3 h. As to the method: as §1, §2

The IC50 is the concentration that gives 50% inhibition. Read a high IC50 as weaker potency in that assay.

For `CCc1cnn2c(NCc3ccc[n+]([O-])c3)cc(N3CCCC[C@H]3CCO)nc12` [Dinaciclib], the IC50 in experiment [1] came to 4.4 nM; in experiment [2] it was 3.6 nM.

The values above are taken from publication PMC6830309, “Characterizing CDK8/19 Inhibitors through a NFκB-Dependent Cell-Based Assay” (Cells, 2019).
